T1: CD22 antigen molecule (human, UniProt P20273 20-847)
T1 sequence (looked up): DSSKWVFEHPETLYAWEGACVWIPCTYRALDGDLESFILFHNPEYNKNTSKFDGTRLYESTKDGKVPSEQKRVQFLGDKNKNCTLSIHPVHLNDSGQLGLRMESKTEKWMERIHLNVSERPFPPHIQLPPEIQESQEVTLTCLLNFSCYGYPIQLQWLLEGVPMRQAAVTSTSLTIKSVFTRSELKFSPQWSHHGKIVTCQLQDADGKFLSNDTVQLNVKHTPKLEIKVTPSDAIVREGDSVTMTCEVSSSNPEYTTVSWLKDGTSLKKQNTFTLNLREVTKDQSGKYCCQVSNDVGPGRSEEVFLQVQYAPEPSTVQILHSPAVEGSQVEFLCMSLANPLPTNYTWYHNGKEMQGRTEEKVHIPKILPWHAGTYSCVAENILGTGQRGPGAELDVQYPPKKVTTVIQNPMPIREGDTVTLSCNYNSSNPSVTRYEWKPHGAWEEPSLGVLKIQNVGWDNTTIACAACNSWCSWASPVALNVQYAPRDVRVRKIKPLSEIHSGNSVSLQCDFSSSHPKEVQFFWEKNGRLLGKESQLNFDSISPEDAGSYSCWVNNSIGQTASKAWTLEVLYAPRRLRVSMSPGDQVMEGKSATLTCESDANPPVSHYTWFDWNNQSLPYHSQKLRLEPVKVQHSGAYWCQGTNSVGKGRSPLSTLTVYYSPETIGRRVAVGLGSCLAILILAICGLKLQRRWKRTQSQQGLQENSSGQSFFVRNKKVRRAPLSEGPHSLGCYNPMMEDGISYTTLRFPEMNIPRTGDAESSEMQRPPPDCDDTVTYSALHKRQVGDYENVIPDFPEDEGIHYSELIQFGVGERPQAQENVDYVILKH

B1: CD22 VL-CD19 VL-CD19 VH-CD22 VH-CD8α-4-1BB-CD3ζ CAR (other)
chain: DIELTQSPSSLAVSVGEKVTMSCKSSQSLLYSSNQKNYLAWYQQKPGQSPKLLIYWASTRESGVPDRFTGSGSGTDFTLTVSSVKAEDLAVYYCQQSYSYPFTFGSGTKLEIKRGGGGSDIVLTQSPKFMSTSVGDRVSVTCKASQNVGTNVAWYQQKPGQSPKPLIYSATYRNSGVPDRFTGSGSGTDFTLTITNVQSKDLADYFCQQYNRYPYTSGGGTKLEIKRGSTSGSGKPGSGEGSTKGQVQLQQSGAELVRPGSSVKISCKASGYAFSSYWMNWVKQRPGQGLEWIGQIYPGDGDTNYNGKFKGQATLTADKSSSTAYMQLSGLTSEDSAVYFCARKTISSVVDFYFDYWGQGTTLTVSSGGGGSQVKLQQSGPELVKPGASVKISCKASGYDFSISWMNWVRQRPGQGLEWIGRIYPGDGDSNYNGKFEGKATLTADKSSSTAYMQLSGLTSVDSAVYFCARTTTMIALYAMDYWGQGTTVTVSSEFTTTPAPRPPTPAPTIASQPLSLRPEACRPAAGGAVHTRGLDFACDIYIWAPLAGTCGVLLLSLVITLYKRGRKKLLYIFKQPFMRPVQTTQEEDGCSCRFPEEEEGGCELRVKFSRSADAPAYQQGQNQLYNELNLGRREEYDVLDKRRGRDPEMGGKPRRKNPQEGLYNELQKDKMAEAYSEIGMKGERRRGKGHDGLYQGLSTATKDTYDALHMQALPPR
B2: CD22 scFv-CD8α-4-1BB-CD3ζ CAR (other)
chain: DIELTQSPSSLAVSVGEKVTMSCKSSQSLLYSSNQKNYLAWYQQKPGQSPKLLIYWASTRESGVPDRFTGSGSGTDFTLTVSSVKAEDLAVYYCQQSYSYPFTFGSGTKLEIKRGGGGSGGGGSGGGGSQVKLQQSGPELVKPGASVKISCKASGYDFSISWMNWVRQRPGQGLEWIGRIYPGDGDSNYNGKFEGKATLTADKSSSTAYMQLSGLTSVDSAVYFCARTTTMIALYAMDYWGQGTTVTVSSTTTPAPRPPTPAPTIASQPLSLRPEACRPAAGGAVHTRGLDFACDIYIWAPLAGTCGVLLLSLVITLYKRGRKKLLYIFKQPFMRPVQTTQEEDGCSCRFPEEEEGGCELRVKFSRSADAPAYQQGQNQLYNELNLGRREEYDVLDKRRGRDPEMGGKPRRKNPQEGLYNELQKDKMAEAYSEIGMKGERRRGKGHDGLYQGLSTATKDTYDALHMQALPPR
B3: CD19 scFv-CD8α-4-1BB-CD3ζ CAR (other)
chain: DIVLTQSPKFMSTSVGDRVSVTCKASQNVGTNVAWYQQKPGQSPKPLIYSATYRNSGVPDRFTGSGSGTDFTLTITNVQSKDLADYFCQQYNRYPYTSGGGTKLEIKRGGGGSGGGGSGGGGSQVQLQQSGAELVRPGSSVKISCKASGYAFSSYWMNWVKQRPGQGLEWIGQIYPGDGDTNYNGKFKGQATLTADKSSSTAYMQLSGLTSEDSAVYFCARKTISSVVDFYFDYWGQGTTLTVSSTTTPAPRPPTPAPTIASQPLSLRPEACRPAAGGAVHTRGLDFACDIYIWAPLAGTCGVLLLSLVITLYKRGRKKLLYIFKQPFMRPVQTTQEEDGCSCRFPEEEEGGCELRVKFSRSADAPAYQQGQNQLYNELNLGRREEYDVLDKRRGRDPEMGGKPRRKNPQEGLYNELQKDKMAEAYSEIGMKGERRRGKGHDGLYQGLSTATKDTYDALHMQALPPR

Molecular target: T1, CD22 antigen molecule
Test: cell-based or functional assay

Q: Which “degranulation level (CD107a on GFP+ cells) after co-culture with MV4-11-CD22 cells, E:T 1:1, 4 h” value (“degranulation level” for short) does the source give for B1 here?
A: Its value is ≥ 15%.

Q: B2 was tested. Which “degranulation level” value did it give?
A: Its value is ≥ 15%.

Q: B3 was tested. Which “degranulation level” value did it give?
A: The value was ≤ 2%.
